Reference: paper PMC3547832, “Secondary Metabolism and Development Is Mediated by LlmF Control of VeA Subcellular Localization in Aspergillus nidulans” (PLoS Genetics, 2013)
These are yes or no findings as the source states them, for the method shown. For some of these results: Binding can be weak; no strength is given. For some of these results: Where a sequence is shown, tags or fusion partners need not be part of it. For some of these results: In cells and extracts the contact can be indirect. Values belong to the molecule of their own block, whether it stands above or below them.

Sequences of proteins named here, by UniProt entry; tags and fusion partners are left off. A change or cut given only in a name is not applied to a line headed by its entry.
UniProt C8VTS4: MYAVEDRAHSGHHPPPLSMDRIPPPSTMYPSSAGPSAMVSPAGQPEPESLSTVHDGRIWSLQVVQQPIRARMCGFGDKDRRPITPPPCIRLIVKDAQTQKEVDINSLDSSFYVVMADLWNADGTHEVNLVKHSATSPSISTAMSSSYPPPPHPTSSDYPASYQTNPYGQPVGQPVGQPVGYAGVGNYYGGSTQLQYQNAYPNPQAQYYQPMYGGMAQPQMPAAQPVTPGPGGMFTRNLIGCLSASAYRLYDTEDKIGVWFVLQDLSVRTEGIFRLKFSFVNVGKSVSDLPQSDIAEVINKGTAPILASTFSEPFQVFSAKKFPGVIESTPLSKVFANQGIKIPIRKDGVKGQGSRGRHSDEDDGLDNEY
UniProt C8VQG9: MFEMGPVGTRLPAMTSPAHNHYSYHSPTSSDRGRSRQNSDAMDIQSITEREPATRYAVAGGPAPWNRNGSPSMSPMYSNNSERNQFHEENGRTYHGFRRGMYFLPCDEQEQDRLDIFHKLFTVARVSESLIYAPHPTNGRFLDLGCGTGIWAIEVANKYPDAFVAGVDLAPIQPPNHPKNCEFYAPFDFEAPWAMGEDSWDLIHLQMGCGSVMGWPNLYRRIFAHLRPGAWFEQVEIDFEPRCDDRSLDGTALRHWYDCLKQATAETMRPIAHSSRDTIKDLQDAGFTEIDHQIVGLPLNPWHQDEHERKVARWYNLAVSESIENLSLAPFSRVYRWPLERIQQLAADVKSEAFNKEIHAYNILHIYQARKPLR
UniProt G5EB89: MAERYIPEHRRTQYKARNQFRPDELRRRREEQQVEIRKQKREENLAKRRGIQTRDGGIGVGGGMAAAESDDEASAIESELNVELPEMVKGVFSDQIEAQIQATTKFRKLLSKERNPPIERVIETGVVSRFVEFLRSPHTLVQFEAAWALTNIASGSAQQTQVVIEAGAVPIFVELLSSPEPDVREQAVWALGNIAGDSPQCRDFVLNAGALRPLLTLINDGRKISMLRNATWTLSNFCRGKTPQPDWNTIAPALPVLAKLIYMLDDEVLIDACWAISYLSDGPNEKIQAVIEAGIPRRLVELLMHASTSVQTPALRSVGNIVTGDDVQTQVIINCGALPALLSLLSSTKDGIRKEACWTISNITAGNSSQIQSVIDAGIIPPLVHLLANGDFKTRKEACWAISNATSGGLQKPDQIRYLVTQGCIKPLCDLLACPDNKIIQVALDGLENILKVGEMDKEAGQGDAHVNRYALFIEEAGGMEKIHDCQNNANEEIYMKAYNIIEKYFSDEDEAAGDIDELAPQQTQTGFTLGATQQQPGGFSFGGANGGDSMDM

Key:
[1] = target: VelB (yeast two-hybrid fusion, full length) (Aspergillus nidulans) (UniProt C8VTS4); experiment: two-hybrid; directed yeast two-hybrid based on the LexA DNA binding domain (bait pTLexA, prey pGAD424) in S. cerevisiae L40; histidine growth reporter and lacZ X-gal colorimetric reporter
[2] = target: LaeA (yeast two-hybrid fusion, full length) (Aspergillus nidulans) (UniProt C8VQG9); experiment: as above
[3] = target: LaeA-like methyltransferase LlmF (yeast two-hybrid fusion, full length) (Aspergillus nidulans); experiment: as above
[4] = target: GST-LlmF (recombinant) (Aspergillus nidulans); experiment: pull-down; 10 µg purified GST tagged protein, glutathione sepharose and purified His6-VeA-S-tag, 3 hours at 4°C in PBS buffer with 1 mM DTT, pH 7.3; anti-S-tag immunoblot; both purified
[5] = target: TAP-LlmF (over-expressed in A. nidulans) (Aspergillus nidulans); experiment: pull-down; in vivo tandem affinity purification of TAP-LlmF (IgG Sepharose, TEV cleavage, calmodulin sepharose) from crude extracts of A. nidulans liquid shaking cultures; anti-S-tag immunoblot of the eluate

Molecule: VeA1, truncated VeA (yeast two-hybrid fusion) (from UniProt C8VTV4)
- binding [2]: no binding

B3: VeA (yeast two-hybrid fusion, full length) (protein, UniProt C8VTV4 1-573)
chain: MATLAAPPPPLGESGNSNSVSRITREGKKITYKLNIMQQPKRARACGQGSKSHTDRRPVDPPPVIELNIFESDPHDDSNKTDITFVYNANFFLFATLEPERPIATGKLMTNQGSPVLTGVPVAGVAYLDKPNRAGYFIFPDLSVRNEGSYRFSFHLFEQIKDPKDATEGTQPMPSPVPGKLSSPQEFLEFRLEVISNPFIVYSAKKFPGLTTSTPISRMIAEQGCRVRIRRDVRMRRRGDKRTEDYDYDNERGYNNRRPDQYAGSDAYANAPERPRSTSISTNMDPYSYPSRRPSAVEYGQPIAQPYQRPMASTPAPSSTPIPAPIPMPGPVALPPSTPSPASAHAPAPPSVPLAAPPPLHTPSYQSHLSFGATQTQYPAPQLSHIPQQTTTPTHPYSPRSSISHSRNQSISEYEPSMGYPGSQTRLSAERPSYGQPSQTTSLPPLRHSLEPSVNSRSKTPSNMITSLPPIQSLSELPSTTSQPSSAIGSSPANEPGPRLWETNSMLSKRTYEESFGHDDRPLYNGMRPDSESYPGGMQRRPSYERSSLLDGPDQMAYKRANGRMVSKPATMR
- binding [3]: binds

B4: His6-VeA-S-tag (recombinant) (protein, UniProt C8VTV4 1-573)
chain: B3 chain
- binding [4]: binds

The remaining lines, values ahead:

- binding [1]: binds
Molecule: importin α KapA (yeast two-hybrid fusion, full length) (from UniProt G5EB89)

- binding [3]: no binding
B1: velvet domain of VeA (29-235) (yeast two-hybrid fusion) (domain or fragment, UniProt C8VTV4 29-235)
chain: KITYKLNIMQQPKRARACGQGSKSHTDRRPVDPPPVIELNIFESDPHDDSNKTDITFVYNANFFLFATLEPERPIATGKLMTNQGSPVLTGVPVAGVAYLDKPNRAGYFIFPDLSVRNEGSYRFSFHLFEQIKDPKDATEGTQPMPSPVPGKLSSPQEFLEFRLEVISNPFIVYSAKKFPGLTTSTPISRMIAEQGCRVRIRRDVRM

- binding [3]: no binding
B2: VeA N terminus (1-235 aa) (yeast two-hybrid fusion) (domain or fragment, UniProt C8VTV4 1-235)
chain: MATLAAPPPPLGESGNSNSVSRITREGKKITYKLNIMQQPKRARACGQGSKSHTDRRPVDPPPVIELNIFESDPHDDSNKTDITFVYNANFFLFATLEPERPIATGKLMTNQGSPVLTGVPVAGVAYLDKPNRAGYFIFPDLSVRNEGSYRFSFHLFEQIKDPKDATEGTQPMPSPVPGKLSSPQEFLEFRLEVISNPFIVYSAKKFPGLTTSTPISRMIAEQGCRVRIRRDVRM

- binding [5]: binds
B5: VeA-S-tag (in A. nidulans) (protein, UniProt C8VTV4 1-573)
chain: B3 chain
